{
  "source": "paper PMC3738497",
  "key": {"[1]": {"biological_target": "HA-tagged m41 expressed from MCMV-HAm41 (murine cytomegalovirus (MCMV))", "assay": "co-IP; NIH-3T3 cells infected with MCMV-M50HA or MCMV-HAm41; after 24 h M50 and m41 precipitated with an anti-HA antibody; endogenous IRE1 detected with an IRE1-specific antibody"}, "[2]": {"biological_target": "HA-tagged M50 expressed from MCMV-M50HA (murine cytomegalovirus (MCMV))", "assay": "co-IP; NIH-3T3 cells infected with MCMV-M50HA or MCMV-HAm41; after 24 h M50 and m41 precipitated with an anti-HA antibody; endogenous IRE1 detected with an IRE1-specific antibody"}},
  "note": "No constants are given. Whether binding was seen depends on the method and setting. Binding seen in cells or lysates may run through a third protein. For some assays here: A result given as binding can be weak or reduced; the word gives no strength.",
  "data": [
    {"binder": "endogenous IRE1 of NIH-3T3 cells (protein, UniProt Q9Z2E3 34-911) VRPESLLFVSTLDGSLHALNKQTGDLKWTVKDDPIIQGPMYVTEMAFLSDPADGSLYVLGTQKQQGLMKLPFTIPELVHASPCRSSDGVFYTGRKQDAWFVVDPESGETQMTLTTEGLSTPQLFIGRTQYTVSMHDLRTPALRWNTTYRRYSAPLLNGSPGKYMSHLTSCGMGLLLTVDPGSGIVLWTQDLGVPVTGIYTWHQDGLHQLPHLTLARDTLHFLVLRWGHIRLPASSYQDTATQFSSLDTQLLMTLYVGKEEAGFYVSKALVHAGVALVPRGLTLAPMDGPTTDEVTLQVSGEREGSPSTAVRYPSGSVALPSQWLLIGYHEPPPVLHTTMLRVHPIPGKVSAETRASEDLHAPPVFFELLNLRREDPELHPEEKASDSYPGLGSQDLLAATFTAILLGAWVLYLMRQQQQSPSAPAGPPDLSQDAQGQLSRDILQDQRRFQSPSEPAQPPHDPEAGQPTVVGKISFNPKDVLGRGAGGTFVFRGQFEGRAVAVKRLLRECFGLVRREVQLLQESDRHPNVLRYFCTEHGPQFHYIALELCQASLQEYVESPDLDRWGLEPTTVLQQMMSGLAHLHSLHIVHRDLKPANILMAGPDSQGQGRVVISDFGLCKKLPVGRCSFSLHSGIPGTEGWMAPELLQLPPDSPTSAVDIFSAGCVFYYVLSGGSHPFGESLYRQANILSGDPCLAQLQEETHDKVVALDLVRAMLSLLPQDRPSAGWVLAHPLFWSRAKELQFFQDVSDWLEKEPDQGPLVSALEAGSYKVVREDWHKHISAPLQADLKRFRSYKGTSVRDLLRAMRNKKHHYRELPAEVRQTLGQLPAGFIQYFTQRFPRLLLHTHRAMRTCASESLFLPYYPPALEARRPDATKS", "values": [
      {"measurement": "binding", "setting": "[1]", "result": "no binding"},
      {"measurement": "binding", "setting": "[2]", "result": "binds"}
    ]}
  ]
}
